From patent US20170240637A1 (Memorial Sloan Kettering, published 2017)
Residue numbers refer to the chain shown, from its start. No constants are given. Whether binding was seen depends on the method and setting. Some results given as binding are weak or reduced against the parent protein; the word gives no strength. For part of these data: Tags and fused reporters may be left off the sequences shown.

T1: 2Ig-B7H3 without Fc fusion (human, UniProt Q5ZPR3-2 29-245, limits assumed)
T1 construct: also called 2IgB7H3 (R&D)
T1 sequence (looked up): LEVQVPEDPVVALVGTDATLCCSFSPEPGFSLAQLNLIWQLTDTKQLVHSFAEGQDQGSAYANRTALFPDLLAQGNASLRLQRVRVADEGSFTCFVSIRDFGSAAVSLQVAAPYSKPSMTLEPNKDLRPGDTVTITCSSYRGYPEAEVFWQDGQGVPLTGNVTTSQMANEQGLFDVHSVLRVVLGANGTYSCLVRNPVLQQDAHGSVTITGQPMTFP

T2: 4Ig-B7H3 (human, UniProt Q5ZPR3 27-461, limits assumed)
T2 construct: also called 4Ig-B73H3
T2 sequence (looked up): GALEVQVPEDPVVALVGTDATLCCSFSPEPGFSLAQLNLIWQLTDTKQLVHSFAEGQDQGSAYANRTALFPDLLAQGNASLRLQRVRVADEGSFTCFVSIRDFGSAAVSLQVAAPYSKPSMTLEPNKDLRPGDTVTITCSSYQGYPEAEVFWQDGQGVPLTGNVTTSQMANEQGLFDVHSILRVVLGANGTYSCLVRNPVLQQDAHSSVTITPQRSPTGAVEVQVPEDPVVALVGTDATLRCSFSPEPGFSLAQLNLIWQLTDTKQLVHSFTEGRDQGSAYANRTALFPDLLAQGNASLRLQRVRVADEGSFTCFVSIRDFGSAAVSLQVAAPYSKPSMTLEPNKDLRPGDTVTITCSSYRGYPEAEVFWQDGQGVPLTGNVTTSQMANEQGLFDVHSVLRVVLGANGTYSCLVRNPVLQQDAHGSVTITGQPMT

B1: hu8H9 clone S3.3 scFv (scFv)
scFv: QVQLVQSGAEVVKPGASVKLSCKTSGYTFTNYDINWVRQRPGQGLEWIGWIFPGDGSTQYNEKFKGKATLTTDTSTSTAYMELSSLRSEDTAVYFCARQTTATWFAYWGQGTLVTVSSGGGGSGGGGSGGGGSEIVMTQSPATLSVSPGERVTLSCRASQSISDYLYWYQQKSHESPRLLIKYASQSISGIPARFSGSGSGSEFTLTINSVEPEDVGVYYCQNGHSFPLTFGQGTKLELKR
notes: also called Sort3; not shown: FLAG and His tags
B2: hu8H9-H1L2 IgG1 (antibody, V domains shown)
VH: QVQLVQSGAEVKKPGASVKLSCKASGYTFTNYDINWVRQAPGQGLEWIGWIFPGDGSTQYNEKFKGKATLTTDTSTSTAYMELSSLRSEDTAVYFCARQTTATWFAYWGQGTLVTVSS
VL: EIVMTQSPATLSVSPGERVTLSCRASQSISDYLHWYQQKSHESPRLLIKYASQSISGIPARFSGSGSGTEFTLTINSVEPEDVGVYYCQNGHSFPLTFGQGTKLEIKR
B3: hu8H9-H1L1 IgG1 (antibody, V domains shown)
VH: B2 VH
VL: B2 VL with S40P, H41G, E42Q, S43A, N76S, E79Q
B4: hu8H9-H2L1 IgG1 (antibody, V domains shown)
VH: B2 VH with K12V, S85R, R87T
VL: B2 VL with S40P, H41G, E42Q, S43A, N76S, E79Q
B5: hu8H9-H2L2 IgG1 (antibody, V domains shown)
VH: B2 VH with K12V, S85R, R87T
VL: B2 VL

Tests used:
[1] = molecular target: T1, 2Ig-B7H3 without Fc fusion; assay: ELISA, right panel '2IgB7H3', scFv serially diluted 0.01-10 µg/ml
Protocol: (§1) B7H3-mFc (100 ng/well) or 2IgB7H3 (R&D, Minneapolis, Minn.) (25 ng/well) were coated on polyvinyl microtiter plates in PBS overnight. Plates were then blocked with 0.5% BSA in PBS at 150 μl per well for 1 h at room temperature. Antibodies were added in triplicates with serial dilution in 0.5% BSA. Following incubation for 1 h at room temperature and washing with PBS, HRP-mouse anti-human Fc antibody, HRP-streptavidin, or HRP-mouse anti-Flag antibody was added. After incubation for 1 h at room temperature and further washing, the color was developed and quantified using an ELISA plate reader at 490 nm.

4Ig-B7H3 [2] = molecular target: T2, 4Ig-B7H3; assay: SPR
4Ig-B7H3 [3] = molecular target: T2, 4Ig-B7H3; assay: ELISA titled 'B7H3 ELISA'; legend: 4Ig-B7H3 (the ELISA method coats B7H3-mFc); IgG serially diluted
Protocol: as §1

Binder	binding [1]	binding (4Ig-B7H3 [2])	binding (4Ig-B7H3 [3])
B1	binds	–	–
B2	–	binds	binds
B3	–	binds	binds
B4	–	binds	binds
B5	–	binds	binds
